Data from PubChem BioAssay AID192 (DTP/NCI, 2004).
The list shows only some results of the screen, not a fair sample: it is rich in T/C values a quarter to a half above the control, in often repeated tests (any T/C) and in doses without a T/C. Further doses and runs are listed elsewhere. T/C: endpoint of the treated group in % of that of the vehicle group. Some doses have a count of surviving animals in place of a T/C: the source files T/C as zero there, which appears to mark a toxic dose or a test without result, not a measured value. Some doses without a T/C left all or most animals alive at the check, yet need not have been tolerated: the source hardly ever lists a survival T/C far under the control, and the zero likely stands for such cases as well. Counts of survivors are from the toxicity check (mostly the fifth day) where no day follows; animals may have died later. Schedule codes are those of the source, read here as Q, the interval in days (D) or hours (H), X, the number of doses. Some doses were run more than once; their values stand side by side, smallest first. Where survival is the endpoint, the PubChem record calls one and a half times the control and up active, and a quarter to a half above the control has no call in these data; cut-offs in other NCI protocols can differ. Numbered stars: 1 amine (or outer) side, 2 acyl side, 3 side chain; on linkers, the order of the positions; unused ones are H or OH. Bridge positions count the residues as written; N and C are the ends. Square brackets hold non-standard residues; d marks the D form. Peptide text beside a SMILES is read from it. I, II: the chains in the order shown. Actinocin(1to9) = Cc1c2oc3c(C)ccc(C(=O)[*:2])c3nc-2c(C(=O)[*:1])c(N)c1=O; NMeV = CN[CH](C(=O)O)C(C)C; Aze = O=C(O)[CH]1CCN1; Sar = CNCC(=O)O

Tested on: BDF1 mice, B16 melanoma ip, median survival T/C
Experiment: NCI In Vivo Anticancer Drug Screen. Data for tumor model B16 Melanoma (intraperitoneal) in B6D2F1 (BDF1) mice
Settings: T/C endpoint: median survival time, higher T/C = longer survival
Summary of the method: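 Each result divides a survival or tumor-size measurement in the compound-treated group by the same measurement in the vehicle group.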

[1] = dose: 150.0 micrograms/kg/injection, schedule: Q01DX009 (ip), vehicle: saline + alcohol
[2] = dose: 25.0 mg/kg/injection, schedule: Q01DX009 (ip), vehicle: saline with Tween-80
[3] = dose: 150.0 mg/kg/injection, schedule: Q01DX009 (ip), vehicle: Klucel (hydroxypropylcellulose) (HPC)
[4] = dose: 300.0 mg/kg/injection, schedule: Q01DX009 (ip), vehicle: Klucel (hydroxypropylcellulose) (HPC)

Compound: Cc1c2oc3c(C)ccc(C(=O)NC4C(=O)NC(C(C)C)C(=O)N5CCCC5C(=O)N(C)CC(=O)N(C)C(C(C)C)C(=O)OC4C)c3nc-2c(C(=O)NC2C(=O)NC(C(C)C)C(=O)N3CCC3C(=O)N(C)CC(=O)N(C)C(C(C)C)C(=O)OC2C)c(N)c1=O (stereo not drawn) (I: TV[Aze][Sar][NMeV] / II: TVP[Sar][NMeV]; ester I:1-I:C, II:1-II:C; linker I:N-II:N via Actinocin(1to9); configuration not given here)
- T/C (dose: 0.3 mg/kg/injection, schedule: Q04DX003 (ip), vehicle: saline + alcohol): 133 % of control
- survivor count (dose: 0.45 mg/kg/injection, schedule: Q01DX009 (ip), vehicle: saline + alcohol): 10 of 10
- survivor count (dose: 0.9 mg/kg/injection, schedule: Q01DX009 (ip), vehicle: saline + alcohol): 10 of 10
- survivor count (dose: 0.9 mg/kg/injection, schedule: Q04DX003 (ip), vehicle: saline + alcohol): 8 of 10 and 10 of 10
- survivor count (dose: 1.2 mg/kg/injection, schedule: Q04DX003 (ip), vehicle: saline + alcohol): 9 of 10
- survivor count (dose: 1.8 mg/kg/injection, schedule: Q01DX009 (ip), vehicle: saline + alcohol): 7 of 10
- T/C (dose: 32.4 micrograms/kg/injection, schedule: Q01DX009 (ip), vehicle: saline + alcohol): 130 % of control
- T/C (dose: 54.0 micrograms/kg/injection, schedule: Q01DX009 (ip), vehicle: saline + alcohol): 127 % of control
- T/C (dose: 90.0 micrograms/kg/injection, schedule: Q01DX009 (ip), vehicle: saline + alcohol): 142 % of control
- T/C [1]: 149 % of control
- survivor count [1]: 10 of 10
- T/C (dose: 200.0 micrograms/kg/injection, schedule: Q01DX009 (ip), vehicle: saline + alcohol): 128 % of control
- survivor count (dose: 300.0 micrograms/kg/injection, schedule: Q01DX009 (ip), vehicle: saline + alcohol): 9 of 10
- survivor count (dose: 417.0 micrograms/kg/injection, schedule: Q01DX009 (ip), vehicle: saline + alcohol): 10 of 10
- survivor count (dose: 600.0 micrograms/kg/injection, schedule: Q01DX009 (ip), vehicle: saline + alcohol): 1 of 10
- survivor count (dose: 1200.0 micrograms/kg/injection, schedule: Q01DX009 (ip), vehicle: saline + alcohol): 0 of 10

Compound: C[N+](C)(C)C
- T/C (dose: 0.75 mg/kg/injection, schedule: Q01DX009 (ip), vehicle: saline): 127 % of control
- survivor count (dose: 1.5 mg/kg/injection, schedule: Q01DX009 (ip), vehicle: saline): 0 of 10
- survivor count (dose: 6.0 mg/kg/injection, schedule: Q01DX009 (ip), vehicle: saline): 0 of 10
- survivor count (dose: 12.0 mg/kg/injection, schedule: Q01DX009 (ip), vehicle: saline): 0 of 10
- survivor count (dose: 25.0 mg/kg/injection, schedule: Q01DX009 (ip), vehicle: saline): 0 of 10
- survivor count (dose: 50.0 mg/kg/injection, schedule: Q01DX009 (ip), vehicle: saline): 0 of 10

Compound: NC(=O)CC1=NCCc2ccccc21
- survivor count (dose: 200.0 mg/kg/injection, schedule: Q01DX009 (ip), vehicle: saline): 6 of 6
- survivor count (dose: 400.0 mg/kg/injection, schedule: Q01DX009 (ip), vehicle: saline): 2 of 6

Compound: CN(C)N=Nc1ccc(S(=O)(=O)Nc2ncccn2)cc1
- T/C [2]: 141 % of control
- T/C (dose: 50.0 mg/kg/injection, schedule: Q01DX009 (ip), vehicle: saline with Tween-80, evaluated on day 45): 138 % of control
- T/C (dose: 50.0 mg/kg/injection, schedule: Q01DX009 (ip), vehicle: saline with Tween-80, evaluated on day 60): 116, 119, 135 % of control
- T/C (dose: 75.0 mg/kg/injection, schedule: Q01DX009 (ip), vehicle: saline with Tween-80): 137 % of control
- T/C (dose: 100.0 mg/kg/injection, schedule: Q01DX009 (ip), vehicle: saline with Tween-80, evaluated on day 45): 141 % of control
- T/C (dose: 100.0 mg/kg/injection, schedule: Q01DX009 (ip), vehicle: saline with Tween-80, evaluated on day 60): 139 % of control

Compound: CC1=C/C(O)CC(=O)Cc2nc(co2)C(=O)N2CCC=C2C(=O)OC(C(C)C)C(C)/C=C\C(=O)NC/C=C\1 (stereo not drawn)
- survivor count (dose: 400.0 mg/kg/injection, schedule: Q01DX009 (ip), vehicle: Klucel (hydroxypropylcellulose) (HPC)): 10 of 10
- survivor count (dose: 4.0 micrograms/kg/injection, schedule: Q01DX009 (ip), vehicle: saline): 10 of 10

Compound: CCC[CH2][Sn]1([CH2]CCC)[O]C2C(CO)OC(n3ccc(N)nc3=O)C2[O]1 (stereo not drawn)
- survivor count (dose: 0.38 mg/kg/injection, schedule: Q01DX009 (ip), vehicle: Klucel (hydroxypropylcellulose) (HPC)): 10 of 10
- survivor count (dose: 0.75 mg/kg/injection, schedule: Q01DX009 (ip), vehicle: Klucel (hydroxypropylcellulose) (HPC)): 10 of 10
- T/C (dose: 0.78 mg/kg/injection, schedule: Q01DX009 (ip), vehicle: Klucel (hydroxypropylcellulose) (HPC)): 136 % of control
- survivor count (dose: 1.5 mg/kg/injection, schedule: Q01DX009 (ip), vehicle: Klucel (hydroxypropylcellulose) (HPC)): 10 of 10
- T/C (dose: 1.56 mg/kg/injection, schedule: Q01DX009 (ip), vehicle: Klucel (hydroxypropylcellulose) (HPC)): 148 % of control
- survivor count (dose: 3.0 mg/kg/injection, schedule: Q01DX009 (ip), vehicle: Klucel (hydroxypropylcellulose) (HPC)): 9 of 10
- T/C (dose: 3.12 mg/kg/injection, schedule: Q01DX009 (ip), vehicle: Klucel (hydroxypropylcellulose) (HPC)): 141 % of control
- survivor count (dose: 6.0 mg/kg/injection, schedule: Q01DX009 (ip), vehicle: Klucel (hydroxypropylcellulose) (HPC)): 10 of 10
- survivor count (dose: 12.0 mg/kg/injection, schedule: Q01DX009 (ip), vehicle: Klucel (hydroxypropylcellulose) (HPC)): 1 of 10
- survivor count (dose: 12.5 mg/kg/injection, schedule: Q01DX009 (ip), vehicle: Klucel (hydroxypropylcellulose) (HPC)): 0 of 10 and 6 of 10
- survivor count (dose: 25.0 mg/kg/injection, schedule: Q01DX009 (ip), vehicle: Klucel (hydroxypropylcellulose) (HPC)): 0 of 10

Compound: N#CCN1CCCN(CC#N)C1
- survivor count [3]: 6 of 10
- survivor count [4]: 0 of 10

Compound: CC(=O)[O][Sn]([CH2]c1ccccc1)([CH2]c1ccccc1)[CH2]c1ccccc1
- survivor count (dose: 12.5 mg/kg/injection, schedule: Q01DX009 (ip), vehicle: other): 10 of 10
- survivor count (dose: 25.0 mg/kg/injection, schedule: Q01DX009 (ip), vehicle: other): 9 of 10

Compound: CN(C)N=Nc1ccccc1C(=O)NC#N
- survivor count (dose: 75.0 mg/kg/injection, schedule: Q01DX009 (ip), vehicle: Klucel (hydroxypropylcellulose) (HPC)): 1 of 10
- survivor count [3]: 0 of 10
- survivor count [4]: 0 of 10

Compound: NC(=O)NOCC1NC(=O)C(CONC(N)=O)NC1=O (stereo not drawn)
- survivor count (dose: 100.0 mg/kg/injection, schedule: Q04DX003 (ip), vehicle: saline): 10 of 10

Compound: Nc1ccc(S(=O)(=O)N/N=C/c2ccccc2[N+](=O)[O-])cc1
- T/C [2]: 125 % of control

Compound: FC(F)(F)c1ccc2c(c1)N(CCCN1CC[N+]3(CCOCC3)CC1)c1ccccc1S2
- survivor count (dose: 0.5 mg/kg/injection, schedule: Q01DX009 (ip), vehicle: saline): 10 of 10
- survivor count (dose: 4.0 mg/kg/injection, schedule: Q01DX009 (ip), vehicle: saline): 10 of 10

Compound: CC(=O)c1ccc2c(c1)N(CCCN1CCN(CCO)CC1)c1ccccc1S2
- survivor count (dose: 6.25 mg/kg/injection, schedule: Q01DX009 (ip), vehicle: saline): 9 of 10
- survivor count (dose: 12.5 mg/kg/injection, schedule: Q01DX009 (ip), vehicle: saline): 9 of 10

Compound: C=C1CCN(c2cccc(Cl)c2)C1=O
- survivor count (dose: 8.0 mg/kg/injection, schedule: Q01DX009 (ip), vehicle: saline + alcohol): 10 of 10

Compound: C[C@H](N)C(=O)N[C@@H]1[C@H]2C(=C(O)C[C@@H](O)[C@@H]2O)C(=O)O[C@@H]1C
- survivor count (dose: 2400.0 mg/kg/injection, schedule: Q01DX009 (ip), vehicle: saline): 1 of 10
